{
  "source": "the supplement of paper PMC10727501",
  "note": "Some of the results follow. Repeats in this data set agree poorly, so a single value says little.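 Researchers measured free-swimming zebrafish larvae's O-bend response probability to dark flashes (naive: first five; training: remaining flashes of four 60-flash blocks; test: later 60-flash block) and OMR turning toward alternating leftward/rightward LED motion. Six treated larvae were compared to sixty 0.1% DMSO controls, with |SSMD|≥2 marking a hit.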",
  "data": [
    {"tested_on": "Danio rerio larvae (5 dpf, TLF)", "assay": "Prob-Train (SSMD vs DMSO vehicle); higher = higher than vehicle (e.g. higher dark-flash O-bend response probability, or better optomotor performance)", "details": "10 µM; pre-incubation: 30-90 min", "values": [
      {"smiles": "CO[C@H]1/C=C/O[C@]2(C)Oc3c(C)c(O)c4c(O)c(c5c(nc6cc(C)ccn65)c4c3C2=O)NC(=O)/C(C)=C\\C=C\\[C@@H](C)[C@H](O)[C@H](C)[C@@H](O)[C@@H](C)[C@H](OC(C)=O)[C@@H]1C", "note": "[Rifaximin]", "Prob-Train": 0.113},
      {"smiles": "CCOC(=O)n1ccn(C)c1=S", "note": "[Carbimazole]", "Prob-Train": 0.206},
      {"smiles": "CC(C)(C)c1cc(NC(=O)Nc2ccc(-c3cn4c(n3)sc3cc(OCCN5CCOCC5)ccc34)cc2)no1", "note": "[Quizartinib (AC220)]", "Prob-Train": -0.239},
      {"smiles": "c1ccc2c(CCNc3ccc(Nc4ccncc4)cc3)c[nH]c2c1", "Prob-Train": 0.219},
      {"smiles": "CC[C@H](/C=C/[C@@H](C)[C@@H]1CC[C@H]2[C@@H]3CC=C4C[C@@H](O)CC[C@]4(C)[C@@H]3CC[C@@]21C)C(C)C", "note": "[Stigmasterol]", "Prob-Train": 0.673},
      {"smiles": "CCCC(C(=O)OCCN(CC)CC)(c1ccccc1)c1ccccc1.Cl", "note": "[Proadifen HCl]", "Prob-Train": 0.127},
      {"smiles": "Cn1cnc2c(F)c(Nc3ccc(Br)cc3Cl)c(C(=O)NOCCO)cc21", "note": "[Selumetinib (AZD6244)]", "Prob-Train": 0.00484},
      {"smiles": "CNC(=O)c1c(F)cccc1Nc1nc(Nc2cc3c(cc2OC)CCN3C(=O)CN(C)C)nc2[nH]ccc12", "Prob-Train": 0.239},
      {"smiles": "C[C@@H]1O[C@H](O[C@H]2[C@H](O)[C@@H](O)[C@@H](O[C@H]3[C@H](O)[C@@H](O)[C@H](O)O[C@H]3CO)O[C@H]2CO)[C@H](O)[C@@H](O)[C@@H]1N[C@H]1C=C(CO)[C@@H](O)[C@H](O)[C@@H]1O", "note": "[Acarbose]", "Prob-Train": 0.159},
      {"smiles": "COc1cc2ncnc(Nc3ccc(Cl)cc3F)c2cc1OC", "Prob-Train": -0.371},
      {"smiles": "O=c1c2ccccc2oc2ccccc12", "note": "[Xanthone]", "Prob-Train": -2.71},
      {"smiles": "C#C[C@@]1(OC(C)=O)CC[C@H]2[C@@H]3CCC4=C[C@@H](OC(C)=O)CC[C@@H]4[C@@H]3CC[C@@]21C", "note": "[Ethynodiol diacetate]", "Prob-Train": -3.12},
      {"smiles": "CS(=O)(=O)c1ccc([C@@H](O)[C@@H](CF)NC(=O)C(Cl)Cl)cc1", "note": "[Florfenicol]", "Prob-Train": -0.11},
      {"smiles": "NC1CCN(c2c(F)cc3c(=O)c(C(=O)O)cn(C4CC4)c3c2Cl)C1", "note": "(stereo not given)", "Prob-Train": -0.114},
      {"smiles": "C=C1c2c(Cl)ccc(O)c2C(O)=C2C(=O)[C@]3(O)C(O)=C(C(N)=O)C(=O)[C@@H](N(C)C)[C@@H]3[C@@H](O)[C@H]12.O=C(O)c1cc(S(=O)(=O)O)ccc1O", "note": "[Meclocycline Sulfosalicylate]", "Prob-Train": 0.597},
      {"smiles": "C/C(O)=C(\\C#N)C(=O)Nc1ccc(C(F)(F)F)cc1", "note": "[Teriflunomide]", "Prob-Train": 0.0371},
      {"smiles": "CC(C)=CCC[C@](C)(O[C@@H]1O[C@H](CO[C@@H]2OC[C@@H](O)[C@H](O)[C@@H]2O)[C@@H](O)[C@H](O)[C@@H]1O)[C@@H]1CC[C@]2(C)[C@@H]1[C@H](O)C[C@H]1[C@@]3(C)CC[C@H](O[C@@H]4O[C@H](CO)[C@@H](O)[C@H](O)[C@@H]4O)C(C)(C)[C@@H]3CC[C@]12C", "note": "[Gynostemma Extract]", "Prob-Train": -0.067},
      {"smiles": "COc1cc2c(NC3CCN(CC4CCCCC4)CC3)nc(N3CCCN(C(C)C)CC3)nc2cc1OCCCN1CCCCC1", "Prob-Train": 0.319},
      {"smiles": "C[C@@H]1C[C@H]2[C@@H]3CCC4=CC(=O)C=C[C@]4(C)[C@]3(Cl)[C@H](O)C[C@]2(C)[C@]1(OC(=O)c1ccco1)C(=O)CCl", "note": "[Mometasone furoate]", "Prob-Train": -0.573},
      {"smiles": "CC(C)(C)C(=O)C(Oc1ccc(Cl)cc1)n1ccnc1", "note": "(stereo not given) [Climbazole]", "Prob-Train": 0.169},
      {"smiles": "Cc1nc2ccc(CN(C)c3ccc(C(=O)N[C@@H](CCC(=O)O)C(=O)O)s3)cc2c(=O)[nH]1", "note": "[Raltitrexed]", "Prob-Train": -0.808},
      {"smiles": "CN(C)CCCOc1nn(Cc2ccccc2)c2ccccc12.Cl", "note": "[Benzydamine HCl]", "Prob-Train": 0.503},
      {"smiles": "CN(C)c1ccc(C(=O)NCCCCCCC(=O)NO)cc1", "Prob-Train": 0.151},
      {"smiles": "Cc1cc(O)c2c(c1)C(=O)c1cccc(O)c1C2=O", "note": "[Chrysophanic Acid]", "Prob-Train": -0.402},
      {"smiles": "CC(/C=C/C(=O)NO)=C\\[C@@H](C)C(=O)c1ccc(N(C)C)cc1", "note": "[Trichostatin A (TSA)]", "Prob-Train": 0.383},
      {"smiles": "CCCCC1C(=O)N(c2ccccc2)N(c2ccccc2)C1=O", "note": "[Phenylbutazone]", "Prob-Train": -0.485},
      {"smiles": "CNC[C@H](O)c1cccc(O)c1.Cl", "note": "[Phenylephrine HCl]", "Prob-Train": 0.0121},
      {"smiles": "Nc1nc(NCCNc2ncc(-n3ccnc3)c(-c3ccc(Cl)cc3Cl)n2)ccc1[N+](=O)[O-]", "Prob-Train": -0.56},
      {"smiles": "Cc1cc(Nc2cc(N3CCN(C)CC3)nc(/C=C/c3ccccc3)n2)n[nH]1", "Prob-Train": -0.683},
      {"smiles": "COc1ccccc1Oc1c(NS(=O)(=O)c2ccc(C(C)(C)C)cc2)nc(-c2ncccn2)nc1OCCO.O", "note": "[Bosentan Hydrate]", "Prob-Train": 0.12},
      {"smiles": "Cc1cc(C)c(CNC(=O)c2cc(-c3ccc(CN4CCOCC4)cc3)cc3c2cnn3C2CCCC2)c(=O)[nH]1", "Prob-Train": 0.0861},
      {"smiles": "NC(=S)NN=Cc1ncccc1N", "note": "[Triapine]", "Prob-Train": 0.111},
      {"smiles": "NC(=O)c1noc([C@H](CCCC2CCCCC2)CC(=O)NO)n1", "Prob-Train": 0.177},
      {"smiles": "CCC(NC(C)C)C(O)c1ccc(O)c(O)c1.CS(=O)(=O)O", "note": "(stereo not given) [Isoetharine Mesylate]", "Prob-Train": -0.686},
      {"smiles": "Cc1[nH]c(/C=C2\\C(=O)Nc3ccc(S(=O)(=O)Cc4c(Cl)cccc4Cl)cc32)c(C)c1C(=O)N1CCC[C@@H]1CN1CCCC1", "Prob-Train": 0.0921},
      {"smiles": "CN(C)c1ccccc1CN1CCCN(Cc2ccccc2N(C)C)C1c1ccncc1", "Prob-Train": 0.405},
      {"smiles": "NCCCC[C@H](N[C@@H](CCc1ccccc1)C(=O)O)C(=O)N1CCC[C@H]1C(=O)O", "note": "[Lisinopril (Zestril)]", "Prob-Train": -0.561},
      {"smiles": "COc1ccccc1N1CCN(CC(O)COc2cccc3ccccc23)CC1", "note": "(stereo not given) [Naftopidil]", "Prob-Train": -0.577},
      {"smiles": "CC(=O)OCC(=O)[C@]12N=C(C)O[C@@H]1C[C@H]1[C@@H]3CCC4=CC(=O)C=C[C@]4(C)[C@@H]3[C@H](O)C[C@@]12C", "note": "[Deflazacort]", "Prob-Train": -0.545},
      {"smiles": "NC1=N[C@@]2(c3cc(NC(=O)c4ccc(F)cn4)ccc3F)COC[C@@H]2CS1", "Prob-Train": 0.425}
    ]}
  ]
}
